Assay results taken from PubChem BioAssay AID1347075 (National Center for Advancing Translational Sciences (NCATS), 2019).
Out of some 400,000 compounds screened, about 5,500 (1.4%) were called active. The inconclusive results got no clear call from the source; some entries with a clear call stand among them for comparison. The call rests on the fitted dose curve; in most records, active means well fitted cell-killing curve with a large enough effect; inconclusive means small, poorly fitted or top-dose-only effect, or effect the other way; inactive means flat fitted curve, though single readings scatter. Potencies beside an inconclusive call are fits to weak or partial responses and may not hold up.
On the % scale 0 is the no-effect control and ±100 the full control effect; potency means the concentration at half of the fitted maximal effect.

Experiment: qHTS assay for MDR1-selective chemotherapeutics: Primary screen using the parental adenocarcinoma cell KB-3-1; further: nearly all actives have a fitted effect of over 60% in size
Conditions: KB-3-1 viability, CellTiter-Glo ATP luminescence, 72 h; activity change, negative = cytotoxic: at 46.1 µM (top of the series)
In short: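 Here the drug-naive KB-3-1 line serves as comparator for MDR sub-line selectivity; cells received compound titrations, 72 h at 37 °C, then CellTiter-Glo readout.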
With `CCO[C@H]1OC(C(=O)NCc2ccccc2)=C[C@@H](c2ccc(Br)cc2)[C@@H]1CCCO` the “activity change, negative = cytotoxic” value was inactive: 7.72%.
In the case of `CC(=O)OC1CCC2C3CCC4=C(CC(F)C(=O)C4)C3CCC12C` (configuration not stated), the Potency is reported as inconclusive: 18.4 µM [cytotoxic, single point].
In the case of `CCCN(CCC)CC(O)Cn1cc(/C=C/C(=O)c2ccc(C)cc2)c2ccccc21` (configuration not stated), the “activity change, negative = cytotoxic” value is reported as inactive: -10.8%.
With `CCOCC(=O)Nc1ccc(Br)c(C)c1` the Potency was inconclusive: 29.1 µM [cytotoxic, single point].
For `Cn1c(SCC(=O)NCC2CCCO2)ncc(C(=O)Nc2ccc(F)cc2)c1=O` (configuration not stated), the Potency was inconclusive: 18.4 µM [cytotoxic, single point].
In the case of `CC(C(=O)NCc1ccc(Cl)cc1)n1ccc2cc(S(=O)(=O)N3CCCCCC3)ccc21` (configuration not stated), the Potency is reported as inconclusive: 16.4 µM [cytotoxic, partial curve, poor fit].
In the case of `COc1ccc2nc(C)cc(SCC(=O)N/N=C/c3cccc4ccccc34)c2c1`, the Potency is reported as inconclusive: 29.1 µM [cytotoxic, single point].
For `CCn1c(=O)c([N+](=O)[O-])c(N2CCN(Cc3ccc4c(c3)OCO4)CC2)c2ccccc21`, the Potency was inconclusive: 32.6 µM [cytotoxic, single point].
With `CN(Cc1c(C(=O)N/N=C/c2ccccc2)nnn1-c1nonc1N)C1CCCCC1` the Potency was inconclusive: 20.6 µM [rising, single point].
For `COc1ccc(CN(C)C[C@@H]2OCCCC[C@H](C)Oc3ccc(NC(=O)Nc4ccc(F)cc4)cc3C(=O)N([C@H](C)CO)C[C@H]2C)cc1`, the Potency was inconclusive: 29.1 µM [cytotoxic, single point].
With `CCCCn1c(N)c(N(CC)C(=O)c2cc(C)cc(C)c2)c(=O)[nH]c1=O` the Potency was inconclusive: 3.26 µM [rising, full curve, poor fit].
In the case of `Cc1ccc2nc(-c3ccc(F)cc3)c(Cc3ccccc3C(F)(F)F)n2c1`, the “activity change, negative = cytotoxic” value is reported as inactive: 0.0302%.
With `COc1ccc(-c2csc(NC(=O)c3ccc(C(C)(C)C)cc3)c2C(=O)O)cc1` the Potency was inconclusive: 20.6 µM [cytotoxic, partial curve].
With `COCCNC(=O)c1ccc(S(=O)(=O)c2ccc(Cl)cc2)c(NC(C)=O)c1` the “activity change, negative = cytotoxic” value was inactive: -5.96%.
For `O=C(C1=C[C@H](c2ccc(Br)cc2)C[C@H](OCc2ccc(CO)cc2)O1)N1CCN(Cc2ccc3c(c2)OCO3)CC1`, the Potency was inconclusive: 23.1 µM [cytotoxic, single point].
In the case of `O=c1cc(-c2ccccc2Cl)oc2c(NS(=O)(=O)c3cc(Cl)cc(Cl)c3O)ccc(O)c12`, the Potency is reported as inconclusive: 20.6 µM [cytotoxic, single point].
With `Cc1ccc(CSCC(=O)Nc2cc(S(=O)(=O)N3CCOCC3)ccc2OCC(F)(F)F)cc1` the Potency was inconclusive: 25.9 µM [cytotoxic, single point].
